Source: the supplement of paper PMC10849652
Some of the results follow.

Protein sequences, listed by entry. Tags and fused reporters are not part of them. Lines headed by an entry give the natural chain unless they say otherwise; changes in a name come on top.
UniProt Q8TDI8: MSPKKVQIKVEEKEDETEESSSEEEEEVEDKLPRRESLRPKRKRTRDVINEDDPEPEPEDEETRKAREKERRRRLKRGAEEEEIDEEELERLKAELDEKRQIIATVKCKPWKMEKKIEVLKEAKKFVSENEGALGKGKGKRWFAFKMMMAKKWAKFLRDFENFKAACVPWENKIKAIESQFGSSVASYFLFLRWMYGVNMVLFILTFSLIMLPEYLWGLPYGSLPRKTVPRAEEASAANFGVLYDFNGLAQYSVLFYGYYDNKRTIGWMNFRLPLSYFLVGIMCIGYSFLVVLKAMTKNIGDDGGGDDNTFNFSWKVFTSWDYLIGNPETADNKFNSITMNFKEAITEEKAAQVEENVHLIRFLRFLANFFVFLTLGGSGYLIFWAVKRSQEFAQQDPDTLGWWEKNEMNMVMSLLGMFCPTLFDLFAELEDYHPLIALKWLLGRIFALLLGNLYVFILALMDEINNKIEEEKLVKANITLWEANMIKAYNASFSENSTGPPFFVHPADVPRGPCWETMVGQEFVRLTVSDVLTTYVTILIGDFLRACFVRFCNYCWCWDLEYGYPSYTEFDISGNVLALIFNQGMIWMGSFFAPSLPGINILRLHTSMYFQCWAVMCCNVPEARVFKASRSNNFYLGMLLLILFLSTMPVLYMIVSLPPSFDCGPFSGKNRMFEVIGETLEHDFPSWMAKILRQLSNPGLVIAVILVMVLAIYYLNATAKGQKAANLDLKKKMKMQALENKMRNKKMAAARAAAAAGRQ
UniProt Q9BTV4: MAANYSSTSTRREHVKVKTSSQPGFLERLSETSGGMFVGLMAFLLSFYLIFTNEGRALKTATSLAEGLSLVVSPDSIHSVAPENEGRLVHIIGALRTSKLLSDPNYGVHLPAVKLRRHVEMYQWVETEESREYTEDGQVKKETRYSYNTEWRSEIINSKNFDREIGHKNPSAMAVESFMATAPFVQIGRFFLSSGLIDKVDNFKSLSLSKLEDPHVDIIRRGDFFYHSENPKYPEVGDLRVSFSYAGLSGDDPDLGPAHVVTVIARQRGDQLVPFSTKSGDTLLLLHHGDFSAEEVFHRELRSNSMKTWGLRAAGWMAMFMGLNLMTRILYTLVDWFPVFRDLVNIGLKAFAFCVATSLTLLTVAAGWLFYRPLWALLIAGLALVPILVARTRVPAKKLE
UniProt Q7Z7H5: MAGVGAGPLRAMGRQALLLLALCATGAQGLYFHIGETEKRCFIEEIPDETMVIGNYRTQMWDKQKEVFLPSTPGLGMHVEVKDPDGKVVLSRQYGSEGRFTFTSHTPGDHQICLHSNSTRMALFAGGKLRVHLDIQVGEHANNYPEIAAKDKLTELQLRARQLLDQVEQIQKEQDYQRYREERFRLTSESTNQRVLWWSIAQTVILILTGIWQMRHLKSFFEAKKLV
UniProt P82094: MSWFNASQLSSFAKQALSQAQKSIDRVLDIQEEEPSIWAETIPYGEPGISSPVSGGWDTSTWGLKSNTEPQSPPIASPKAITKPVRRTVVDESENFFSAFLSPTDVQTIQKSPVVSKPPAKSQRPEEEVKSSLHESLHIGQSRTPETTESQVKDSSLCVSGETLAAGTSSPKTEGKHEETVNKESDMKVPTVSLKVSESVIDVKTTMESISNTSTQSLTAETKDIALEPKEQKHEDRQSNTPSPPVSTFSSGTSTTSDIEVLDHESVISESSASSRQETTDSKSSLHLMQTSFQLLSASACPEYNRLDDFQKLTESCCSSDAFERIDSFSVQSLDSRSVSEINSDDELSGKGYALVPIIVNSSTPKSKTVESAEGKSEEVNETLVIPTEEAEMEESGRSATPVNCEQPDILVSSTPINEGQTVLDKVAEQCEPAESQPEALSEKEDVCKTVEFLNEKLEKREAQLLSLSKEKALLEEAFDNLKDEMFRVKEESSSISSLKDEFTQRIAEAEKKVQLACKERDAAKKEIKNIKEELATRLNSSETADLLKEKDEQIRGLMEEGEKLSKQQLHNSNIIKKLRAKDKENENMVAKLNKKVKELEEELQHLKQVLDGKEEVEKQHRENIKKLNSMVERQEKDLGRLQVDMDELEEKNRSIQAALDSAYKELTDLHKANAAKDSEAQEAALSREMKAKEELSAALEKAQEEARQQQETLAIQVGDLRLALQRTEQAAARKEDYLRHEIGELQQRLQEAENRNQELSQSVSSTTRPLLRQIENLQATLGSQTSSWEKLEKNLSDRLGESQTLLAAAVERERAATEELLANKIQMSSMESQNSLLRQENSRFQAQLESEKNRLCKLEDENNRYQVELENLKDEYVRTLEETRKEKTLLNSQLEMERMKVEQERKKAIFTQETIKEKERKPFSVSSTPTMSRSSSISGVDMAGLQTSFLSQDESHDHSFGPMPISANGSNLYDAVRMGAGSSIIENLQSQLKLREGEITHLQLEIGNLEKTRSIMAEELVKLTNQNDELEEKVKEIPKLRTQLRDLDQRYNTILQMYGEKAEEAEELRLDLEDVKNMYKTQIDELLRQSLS
UniProt Q8TBQ9: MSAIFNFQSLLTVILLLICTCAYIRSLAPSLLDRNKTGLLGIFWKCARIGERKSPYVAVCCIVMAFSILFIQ
UniProt Q4ZIN3: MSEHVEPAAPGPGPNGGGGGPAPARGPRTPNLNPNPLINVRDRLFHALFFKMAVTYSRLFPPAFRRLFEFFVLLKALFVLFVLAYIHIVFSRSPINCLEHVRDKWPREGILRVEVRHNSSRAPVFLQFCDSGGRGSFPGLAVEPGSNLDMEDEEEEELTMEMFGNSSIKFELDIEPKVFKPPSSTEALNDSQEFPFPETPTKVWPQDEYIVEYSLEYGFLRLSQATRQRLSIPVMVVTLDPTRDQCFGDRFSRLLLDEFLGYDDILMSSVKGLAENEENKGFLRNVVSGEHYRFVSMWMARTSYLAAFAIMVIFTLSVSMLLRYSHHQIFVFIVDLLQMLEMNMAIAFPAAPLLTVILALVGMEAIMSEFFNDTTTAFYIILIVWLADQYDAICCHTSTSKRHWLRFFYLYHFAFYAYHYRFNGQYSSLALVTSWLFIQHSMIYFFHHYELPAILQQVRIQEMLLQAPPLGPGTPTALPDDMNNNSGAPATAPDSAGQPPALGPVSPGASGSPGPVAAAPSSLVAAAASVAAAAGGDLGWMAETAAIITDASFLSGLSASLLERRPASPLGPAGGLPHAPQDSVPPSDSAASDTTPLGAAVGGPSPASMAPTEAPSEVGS
UniProt Q9P0S9: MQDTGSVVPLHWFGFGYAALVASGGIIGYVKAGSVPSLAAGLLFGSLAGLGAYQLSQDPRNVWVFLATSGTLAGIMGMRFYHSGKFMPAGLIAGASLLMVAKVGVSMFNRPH
UniProt P19438, whole entry, looked up: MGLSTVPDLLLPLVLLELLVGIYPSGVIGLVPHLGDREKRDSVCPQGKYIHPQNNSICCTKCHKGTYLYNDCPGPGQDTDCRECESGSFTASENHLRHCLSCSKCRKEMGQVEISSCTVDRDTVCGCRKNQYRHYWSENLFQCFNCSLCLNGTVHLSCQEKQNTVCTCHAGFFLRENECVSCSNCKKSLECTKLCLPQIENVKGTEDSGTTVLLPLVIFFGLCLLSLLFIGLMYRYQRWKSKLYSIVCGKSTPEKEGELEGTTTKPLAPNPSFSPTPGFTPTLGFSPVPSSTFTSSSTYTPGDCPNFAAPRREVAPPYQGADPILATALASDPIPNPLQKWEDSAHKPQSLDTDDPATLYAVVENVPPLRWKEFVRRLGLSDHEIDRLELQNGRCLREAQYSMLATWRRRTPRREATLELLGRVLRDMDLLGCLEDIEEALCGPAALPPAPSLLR
UniProt P42167: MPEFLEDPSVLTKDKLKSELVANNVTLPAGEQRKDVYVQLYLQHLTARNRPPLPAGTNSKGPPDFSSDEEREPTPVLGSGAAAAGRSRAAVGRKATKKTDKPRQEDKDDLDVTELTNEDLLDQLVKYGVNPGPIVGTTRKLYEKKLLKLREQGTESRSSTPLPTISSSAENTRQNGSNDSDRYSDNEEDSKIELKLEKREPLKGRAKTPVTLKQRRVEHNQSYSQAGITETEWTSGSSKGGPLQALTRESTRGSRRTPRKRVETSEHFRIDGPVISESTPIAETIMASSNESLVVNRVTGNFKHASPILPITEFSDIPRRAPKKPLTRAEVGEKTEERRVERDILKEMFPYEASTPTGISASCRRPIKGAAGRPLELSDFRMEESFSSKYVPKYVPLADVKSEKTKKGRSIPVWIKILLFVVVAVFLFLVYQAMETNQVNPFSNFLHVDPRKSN
UniProt Q9H0R3: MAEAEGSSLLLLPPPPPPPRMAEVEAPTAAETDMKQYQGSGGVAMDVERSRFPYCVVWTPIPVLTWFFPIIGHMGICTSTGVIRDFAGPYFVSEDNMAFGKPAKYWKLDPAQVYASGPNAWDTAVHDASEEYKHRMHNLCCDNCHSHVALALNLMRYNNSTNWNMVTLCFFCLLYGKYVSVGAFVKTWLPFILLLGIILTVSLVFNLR
UniProt Q6ZT21: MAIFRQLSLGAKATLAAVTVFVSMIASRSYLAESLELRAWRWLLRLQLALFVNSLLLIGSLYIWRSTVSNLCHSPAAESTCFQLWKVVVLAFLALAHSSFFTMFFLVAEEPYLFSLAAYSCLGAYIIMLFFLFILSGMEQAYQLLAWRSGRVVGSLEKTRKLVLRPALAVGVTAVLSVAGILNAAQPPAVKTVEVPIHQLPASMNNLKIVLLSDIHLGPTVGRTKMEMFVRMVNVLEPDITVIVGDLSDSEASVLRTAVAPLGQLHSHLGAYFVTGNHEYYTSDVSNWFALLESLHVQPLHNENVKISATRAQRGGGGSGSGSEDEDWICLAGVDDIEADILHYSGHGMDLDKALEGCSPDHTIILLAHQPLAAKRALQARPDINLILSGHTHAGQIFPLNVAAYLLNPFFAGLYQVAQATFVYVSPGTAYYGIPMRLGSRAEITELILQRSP
UniProt Q9NV96: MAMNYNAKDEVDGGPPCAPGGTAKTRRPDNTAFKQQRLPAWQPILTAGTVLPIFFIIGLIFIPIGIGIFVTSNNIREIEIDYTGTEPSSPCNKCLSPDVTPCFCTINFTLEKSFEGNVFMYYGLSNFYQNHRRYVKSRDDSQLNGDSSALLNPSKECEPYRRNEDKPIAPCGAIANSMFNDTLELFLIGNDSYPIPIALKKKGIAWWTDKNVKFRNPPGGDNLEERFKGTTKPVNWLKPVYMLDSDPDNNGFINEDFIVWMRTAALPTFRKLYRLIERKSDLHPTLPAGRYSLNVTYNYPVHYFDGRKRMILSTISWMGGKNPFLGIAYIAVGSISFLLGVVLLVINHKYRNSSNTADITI
UniProt Q9NVV0: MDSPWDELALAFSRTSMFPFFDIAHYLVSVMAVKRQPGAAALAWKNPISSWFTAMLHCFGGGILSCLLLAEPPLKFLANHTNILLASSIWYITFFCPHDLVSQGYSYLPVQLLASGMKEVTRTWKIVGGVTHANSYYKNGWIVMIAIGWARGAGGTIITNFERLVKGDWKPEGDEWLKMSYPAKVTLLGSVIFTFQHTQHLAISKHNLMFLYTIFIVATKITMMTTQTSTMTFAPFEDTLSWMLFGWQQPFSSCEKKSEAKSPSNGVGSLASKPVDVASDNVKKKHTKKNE
UniProt Q96JJ7: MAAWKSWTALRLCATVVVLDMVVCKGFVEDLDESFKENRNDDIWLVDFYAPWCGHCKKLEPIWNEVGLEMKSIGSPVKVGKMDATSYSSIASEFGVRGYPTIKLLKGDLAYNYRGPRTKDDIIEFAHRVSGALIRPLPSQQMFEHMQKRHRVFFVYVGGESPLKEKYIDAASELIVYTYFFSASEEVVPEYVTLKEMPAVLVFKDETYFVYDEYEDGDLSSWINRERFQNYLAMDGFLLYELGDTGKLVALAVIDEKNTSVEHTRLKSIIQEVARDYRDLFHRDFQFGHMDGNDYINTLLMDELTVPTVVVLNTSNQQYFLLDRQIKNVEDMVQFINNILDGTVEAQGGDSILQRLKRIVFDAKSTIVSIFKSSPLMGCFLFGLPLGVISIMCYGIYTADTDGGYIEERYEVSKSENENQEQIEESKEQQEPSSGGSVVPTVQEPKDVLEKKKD
UniProt Q15363: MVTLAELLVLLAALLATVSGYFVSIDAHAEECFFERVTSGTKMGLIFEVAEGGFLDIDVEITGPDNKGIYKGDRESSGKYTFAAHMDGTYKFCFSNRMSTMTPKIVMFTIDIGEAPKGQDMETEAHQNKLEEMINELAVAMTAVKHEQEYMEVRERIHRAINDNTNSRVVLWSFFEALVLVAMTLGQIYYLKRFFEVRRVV
UniProt Q9BZW5, whole entry, looked up: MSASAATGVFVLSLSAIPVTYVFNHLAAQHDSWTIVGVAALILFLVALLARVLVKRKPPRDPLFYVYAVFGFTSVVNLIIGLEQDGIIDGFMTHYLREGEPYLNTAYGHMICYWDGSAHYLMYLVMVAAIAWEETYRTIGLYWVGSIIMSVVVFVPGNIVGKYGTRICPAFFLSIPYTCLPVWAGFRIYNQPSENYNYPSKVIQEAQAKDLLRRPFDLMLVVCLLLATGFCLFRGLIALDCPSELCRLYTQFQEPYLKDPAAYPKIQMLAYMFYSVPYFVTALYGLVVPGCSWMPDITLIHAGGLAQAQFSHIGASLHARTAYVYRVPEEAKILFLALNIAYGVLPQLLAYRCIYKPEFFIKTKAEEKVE

Experiments:
Assay in all cases: log2 fold change, soluble protein after heating vs DMSO (PISA); higher = thermal stabilisation; K562 cells, 10 uM, 30 min; active = over 0.2 and 3.5 SD of the protein, either way, in both replicates (recomputed)
saracatinib = compound: CN1CCN(CCOc2cc(OC3CCOCC3)c3c(Nc4c(Cl)ccc5c4OCO5)ncnc3c2)CC1 [saracatinib]
In short: (§1)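 Thermal stability values are relative to control samples and come from duplicates. They are expressed as log2 fold changes. For measurement, K562 cells (2×10^6 cells/mL) received 10 μM compound for 30 min, and aliquots were heated for 3 min over 48°C-58°C, pooled, and extracted at 4°C in PBS with 0.5% NP-40. Soluble protein, the supernatant after 21,000xg for 90 min, was quantified by TMTpro 16plex LC-MS/MS with equalised channel sums.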

sotrastaurin = compound: CN1CCN(c2nc(C3=C(c4c[nH]c5ccccc45)C(=O)NC3=O)c3ccccc3n2)CC1 [sotrastaurin]
In short: as §1

alvocidib = compound: CN1CC[C@H](c2c(O)cc(O)c3c(=O)cc(-c4ccccc4Cl)oc23)[C@H](O)C1 [alvocidib]
In short: as §1

Tubastatin A = compound: CN1CCc2c(c3ccccc3n2Cc2ccc(C(=O)NO)cc2)C1 [Tubastatin A]
In short: as §1

[1] = compound: CNC(=O)C1=CC=CC=C1NC2=NC(=NC=C2Cl)NC3=C(C=C(C=C3)N4CCOCC4)OC
In short: as §1

defactinib = compound: CNC(=O)c1ccc(Nc2ncc(C(F)(F)F)c(NCc3nccnc3N(C)S(C)(=O)=O)n2)cc1 [defactinib]
In short: as §1

rucaparib = compound: CNCc1ccc(-c2[nH]c3cc(F)cc4c3c2CCNC4=O)cc1 [rucaparib]
In short: as §1

[2] = compound: CNc1nc(-c2ccc3c(N)n[nH]c3c2)cc(N2C[C@@H](C(=O)NC3CCCCC3)CC[C@H]2C)n1
In short: as §1

encorafenib = compound: COC(=O)N[C@@H](C)CNc1nccc(-c2cn(C(C)C)nc2-c2cc(Cl)cc(NS(C)(=O)=O)c2F)n1 [encorafenib]
In short: as §1

[3] = compound: COC(=O)[C@H](CCSC)NC(=O)C1=C(C=C(C=C1)NC[C@H](CS)N)C2=CC=CC=C2
In short: as §1

Measured: log2 fold change

TMC1 (UniProt Q8TDI8)
inactive: saracatinib 0.153 | sotrastaurin 0.04 | alvocidib 0.122 | Tubastatin A -0.013 | [1] 0.006 | defactinib 0.097 | rucaparib -0.394 | [2] 0.033 | encorafenib 0.189 | [3] -0.05

TMEM43 (UniProt Q9BTV4)
inactive: saracatinib 0 | sotrastaurin -0.043 | alvocidib 0.014 | Tubastatin A 0.005 | [1] -0.003 | defactinib 0.055 | rucaparib 0.035 | [2] -0.026 | encorafenib 0.059 | [3] 0.01

TMA16 (UniProt Q96EY4)
inactive: saracatinib -0.096 | sotrastaurin 0.016 | alvocidib 0.21 | Tubastatin A 0.102 | [1] 0.013 | defactinib 0.114 | rucaparib 0.178 | [2] 0.092 | encorafenib 0.144 | [3] 0.101

TMED4 (UniProt Q7Z7H5)
inactive: saracatinib 0.005 | sotrastaurin 0.042 | alvocidib -0.015 | Tubastatin A 0.033 | [1] 0.005 | defactinib -0.007 | rucaparib -0.049 | [2] -0.009 | encorafenib -0.022 | [3] -0.028

2 records picked at random from the list so far:
TMA16 (UniProt Q96EY4)
inactive: saracatinib -0.096 | sotrastaurin 0.016 | alvocidib 0.21 | Tubastatin A 0.102 | [1] 0.013 | defactinib 0.114 | rucaparib 0.178 | [2] 0.092 | encorafenib 0.144 | [3] 0.101

TMC1 (UniProt Q8TDI8)
inactive: saracatinib 0.153 | sotrastaurin 0.04 | alvocidib 0.122 | Tubastatin A -0.013 | [1] 0.006 | defactinib 0.097 | rucaparib -0.394 | [2] 0.033 | encorafenib 0.189 | [3] -0.05

(cont.)

TMEM248 (UniProt Q9NWD8)
inactive: saracatinib -0.122 | sotrastaurin 0.008 | alvocidib 0.039 | Tubastatin A -0.058 | [1] -0.074 | defactinib 0.037 | rucaparib -0.126 | [2] -0.025 | encorafenib 0 | [3] 0.067

TMF1 (UniProt P82094)
inactive: saracatinib 0.066 | sotrastaurin 0.025 | alvocidib 0.007 | Tubastatin A -0.016 | [1] -0.001 | defactinib -0.002 | rucaparib -0.037 | [2] -0.044 | encorafenib -0.045 | [3] 0.017

TMEM167A (UniProt Q8TBQ9)
inactive: saracatinib 0.07 | sotrastaurin 0.011 | alvocidib -0.049 | Tubastatin A -0.044 | [1] 0.073 | defactinib -0.028 | rucaparib -0.044 | [2] -0.117 | encorafenib 0 | [3] 0.094

TMEM230 isoform 2 (UniProt Q96A57)
inactive: saracatinib 0.128 | sotrastaurin 0.048 | alvocidib -0.056 | Tubastatin A 0.001 | [1] -0.057 | defactinib 0.115 | rucaparib 0.133 | [2] -0.046 | encorafenib -0.055 | [3] 0.023

TMEM259 (UniProt Q4ZIN3)
inactive: saracatinib -0.041 | sotrastaurin 0.052 | alvocidib -0.027 | Tubastatin A -0.063 | [1] -0.048 | defactinib -0.013 | rucaparib 0.033 | [2] -0.057 | encorafenib -0.077 | [3] -0.013

TMLHE isoform 8 (UniProt Q9NVH6)
inactive: saracatinib 0.017 | sotrastaurin -0.005 | alvocidib 0.039 | Tubastatin A 0.231 | [1] -0.013 | defactinib 0.027 | rucaparib 0.036 | [2] -0.036 | encorafenib 0.023 | [3] 0

TMEM14C (UniProt Q9P0S9)
inactive: saracatinib 0.131 | sotrastaurin 0.016 | alvocidib 0.101 | Tubastatin A 0.007 | [1] 0.094 | defactinib -0.056 | rucaparib -0.001 | [2] -0.029 | encorafenib -0.023 | [3] 0.003

TMEM165 (UniProt Q9HC07)
inactive: saracatinib 0.038 | sotrastaurin 0.03 | alvocidib 0.027 | Tubastatin A 0.06 | [1] -0.007 | defactinib 0.044 | rucaparib 0.01 | [2] -0.059 | encorafenib -0.021 | [3] 0.102

TNFRSF1A (UniProt P19438)
inactive: saracatinib -0.22 | sotrastaurin 0.024 | alvocidib 0.077 | Tubastatin A 0.264 | [1] -0.123 | [2] 0.006

TMEM115 (UniProt Q12893)
inactive: saracatinib 0.025 | sotrastaurin 0.059 | alvocidib 0.034 | Tubastatin A -0.025 | [1] -0.028 | defactinib -0.063 | rucaparib -0.026 | [2] 0.022 | encorafenib -0.056 | [3] 0.038

TMTC3 (UniProt Q6ZXV5)
inactive: saracatinib -0.03 | sotrastaurin 0.028 | Tubastatin A 0.009 | [1] 0.012 | defactinib 0.009 | rucaparib 0.022 | [2] 0.006 | encorafenib 0.028 | [3] -0.019

TMPO isoform 2 (UniProt P42167)
inactive: saracatinib 0.035 | sotrastaurin 0.121 | alvocidib -0.008 | Tubastatin A -0.02 | [1] -0.023 | defactinib 0.061 | rucaparib -0.035 | [2] -0.029 | encorafenib 0.005 | [3] 0.079

TMEM222 (UniProt Q9H0R3)
inactive: saracatinib -0.347 | sotrastaurin 0.083 | alvocidib -0.186 | Tubastatin A -0.05 | [1] 0.028 | defactinib -0.083 | rucaparib 0.048 | [2] 0.014 | encorafenib 0.015 | [3] 0.165

TMPPE (UniProt Q6ZT21)
inactive: saracatinib 0.093 | sotrastaurin 0.04 | alvocidib -0.004 | Tubastatin A 0.009 | [1] -0.005 | defactinib -0.052 | rucaparib 0.017 | [2] -0.031 | encorafenib 0.033 | [3] -0.096

TMEM30A (UniProt Q9NV96)
inactive: saracatinib 0.043 | sotrastaurin 0.057 | alvocidib 0.01 | Tubastatin A -0.066 | [1] 0.017 | defactinib 0.034 | rucaparib -0.084 | [2] -0.005 | encorafenib -0.007 | [3] 0.045

TMEM62 (UniProt Q0P6H9)
inactive: saracatinib 0.073 | sotrastaurin 0.048 | alvocidib -0.025 | Tubastatin A 0.039 | [1] -0.064 | defactinib 0.048 | rucaparib -0.096 | [2] 0.015 | encorafenib 0.047 | [3] 0.026

TMEM38B (UniProt Q9NVV0)
inactive: saracatinib 0.018 | sotrastaurin 0.018 | alvocidib 0.01 | Tubastatin A 0 | [1] -0.04 | defactinib -0.036 | rucaparib 0.021 | [2] -0.01 | encorafenib -0.034 | [3] 0.068

TMX1 (UniProt Q9H3N1)
inactive: saracatinib -0.018 | sotrastaurin 0.012 | alvocidib -0.008 | Tubastatin A -0.023 | [1] -0.001 | defactinib 0.016 | rucaparib -0.017 | [2] -0.014 | encorafenib 0.007 | [3] 0.023

TMEM87A (UniProt Q8NBN3)
inactive: saracatinib 0.011 | sotrastaurin 0.058 | alvocidib 0.037 | Tubastatin A -0.03 | [1] 0.024 | defactinib -0.029 | rucaparib 0.015 | [2] -0.031 | encorafenib -0.008 | [3] 0.012

TMX3 (UniProt Q96JJ7)
inactive: saracatinib -0.042 | sotrastaurin -0.064 | alvocidib 0.042 | Tubastatin A -0.004 | [1] 0.019 | defactinib -0.026 | rucaparib -0.009 | [2] -0.028 | encorafenib 0.001 | [3] 0.002

TMUB1 (UniProt Q9BVT8)
inactive: saracatinib -0.138 | sotrastaurin 0.005 | alvocidib -0.01 | Tubastatin A 0.04 | [1] -0.063 | defactinib -0.02 | rucaparib 0.022 | [2] -0.087 | encorafenib -0.105 | [3] 0.108

TMED2 (UniProt Q15363)
inactive: saracatinib -0.004 | sotrastaurin 0.018 | alvocidib -0.008 | Tubastatin A -0.026 | [1] 0.045 | defactinib 0.003 | rucaparib 0.002 | [2] -0.011 | encorafenib -0.001 | [3] -0.013

TMEM201 (UniProt Q5SNT2)
inactive: saracatinib 0.002 | sotrastaurin 0.051 | alvocidib 0.075 | Tubastatin A 0.009 | [1] -0.027 | [2] -0.026

TMEM63A (UniProt O94886)
inactive: saracatinib 0.029 | sotrastaurin 0.004 | alvocidib 0.016 | Tubastatin A 0.017 | [1] 0.088 | defactinib -0.018 | rucaparib 0.073 | [2] 0.019 | encorafenib -0.041 | [3] 0.049

TLN2 (UniProt Q9Y4G6)
inactive: saracatinib -0.011 | sotrastaurin -0.056 | alvocidib -0.07 | Tubastatin A 0.08 | [1] 0.045 | defactinib -0.02 | rucaparib 0.148 | [2] 0.078 | encorafenib 0.128 | [3] -0.052

TM6SF1 (UniProt Q9BZW5)
inactive: saracatinib -0.049 | sotrastaurin -0.003 | alvocidib -0.265 | Tubastatin A 0.117 | [1] 0.029 | defactinib 0.051 | [2] -0.045 | [3] 0.062

TMEM185B (UniProt Q9H7F4)
inactive: saracatinib -0.079 | sotrastaurin 0.046 | alvocidib 0.09 | Tubastatin A 0.003 | [1] 0 | defactinib 0.061 | rucaparib -0.114 | [2] -0.087 | encorafenib 0.115 | [3] -0.091
